{"source": "PubChem BioAssay AID1259308 | NCATS – 2017", "test": "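Genes whose loss raises luciferase production in HEK293 cells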 (primary screen)", "cell system": "human HEK293 embryonic kidney cells stably expressing firefly luciferase (HEK-CMV-Luc2-Hygro)", "reagent": "single siRNA against human genes, 0.8 pmol siRNA per well", "time to read-out": "72 h", "measurement": "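Luciferase light (ONE-Glo) measured on one replicate plate set and viability (CellTiter-Glo) on the other, scaled to a negative control siRNA, with robust z-scores and luciferase per cell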", "reading the numbers": "total luciferase, z-score: higher = more reporter protein produced", "rule for the call": "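Active when the median/MAD z-score for overall luciferase is greater than 3; a gene was taken forward for validation with new siRNAs if at least two of its three siRNAs passed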", "meaning of the calls": "active = raised luciferase; inactive = no rise", "note": "This is a random part of about 59,000 reagents tested. About 1,510 of them (2.6%) count as active. 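Calls use total luciferase alone and ignore viability, so some active siRNAs may act by altering cell number.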 Reagents against one gene are numbered here. Not all columns of the deposit are shown."}
{"target": "SNX6", "reagent no.": 1, "total luciferase, z-score": -0.672, "outcome": "inactive"}
{"target": "SNX6", "reagent no.": 2, "total luciferase, z-score": -0.463, "outcome": "inactive"}
{"target": "SNX6", "reagent no.": 3, "total luciferase, z-score": -0.356, "outcome": "inactive"}
{"target": "SEMA4A", "reagent no.": 1, "total luciferase, z-score": 2.29, "outcome": "inactive"}
{"target": "SEMA4A", "reagent no.": 2, "total luciferase, z-score": -1.32, "outcome": "inactive"}
{"target": "SEMA4A", "reagent no.": 3, "total luciferase, z-score": 2.04, "outcome": "inactive"}
{"target": "PFDN2", "reagent no.": 1, "total luciferase, z-score": -2.02, "outcome": "inactive"}
{"target": "PFDN2", "reagent no.": 2, "total luciferase, z-score": 3.12, "outcome": "active"}
{"target": "PFDN2", "reagent no.": 3, "total luciferase, z-score": -1.57, "outcome": "inactive"}
{"target": "HDLBP", "reagent no.": 1, "total luciferase, z-score": -0.0401, "outcome": "inactive"}
{"target": "HDLBP", "reagent no.": 2, "total luciferase, z-score": -0.341, "outcome": "inactive"}
{"target": "HDLBP", "reagent no.": 3, "total luciferase, z-score": -1.15, "outcome": "inactive"}
{"target": "DYDC1", "reagent no.": 1, "total luciferase, z-score": 1.23, "outcome": "inactive"}
{"target": "DYDC1", "reagent no.": 2, "total luciferase, z-score": -1.25, "outcome": "inactive"}
{"target": "DYDC1", "reagent no.": 3, "total luciferase, z-score": 0.0812, "outcome": "inactive"}
{"target": "CRIM1", "reagent no.": 1, "total luciferase, z-score": 0.306, "outcome": "inactive"}
{"target": "CRIM1", "reagent no.": 2, "total luciferase, z-score": -0.877, "outcome": "inactive"}
{"target": "CRIM1", "reagent no.": 3, "total luciferase, z-score": -0.811, "outcome": "inactive"}
{"target": "TTC19", "reagent no.": 1, "total luciferase, z-score": 1.15, "outcome": "inactive"}
{"target": "TTC19", "reagent no.": 2, "total luciferase, z-score": 1.63, "outcome": "inactive"}
{"target": "TTC19", "reagent no.": 3, "total luciferase, z-score": 1.82, "outcome": "inactive"}
{"target": "SDF2", "reagent no.": 1, "total luciferase, z-score": 2.74, "outcome": "inactive"}
{"target": "SDF2", "reagent no.": 2, "total luciferase, z-score": 0.77, "outcome": "inactive"}
{"target": "SDF2", "reagent no.": 3, "total luciferase, z-score": -0.462, "outcome": "inactive"}
{"target": "MED15", "reagent no.": 1, "total luciferase, z-score": -0.934, "outcome": "inactive"}
{"target": "MED15", "reagent no.": 2, "total luciferase, z-score": -1.03, "outcome": "inactive"}
{"target": "MED15", "reagent no.": 3, "total luciferase, z-score": 0.206, "outcome": "inactive"}
{"target": "LOC400756 (retired record)", "reagent no.": 1, "total luciferase, z-score": -0.098, "outcome": "inactive"}
{"target": "LOC400756 (retired record)", "reagent no.": 2, "total luciferase, z-score": -2.79, "outcome": "inactive"}
{"target": "LOC400756 (retired record)", "reagent no.": 3, "total luciferase, z-score": -0.176, "outcome": "inactive"}
{"target": "GJB6", "reagent no.": 1, "total luciferase, z-score": -0.676, "outcome": "inactive"}
{"target": "GJB6", "reagent no.": 2, "total luciferase, z-score": 0.157, "outcome": "inactive"}
{"target": "GJB6", "reagent no.": 3, "total luciferase, z-score": -0.327, "outcome": "inactive"}
{"target": "ZNF554", "reagent no.": 1, "total luciferase, z-score": 0.23, "outcome": "inactive"}
{"target": "ZNF554", "reagent no.": 2, "total luciferase, z-score": 0.53, "outcome": "inactive"}
{"target": "ZNF554", "reagent no.": 3, "total luciferase, z-score": 0.271, "outcome": "inactive"}
{"target": "SHOC2", "reagent no.": 1, "total luciferase, z-score": -0.295, "outcome": "inactive"}
{"target": "SHOC2", "reagent no.": 2, "total luciferase, z-score": 0.208, "outcome": "inactive"}
{"target": "SHOC2", "reagent no.": 3, "total luciferase, z-score": -0.469, "outcome": "inactive"}
{"target": "FAM187B", "reagent no.": 1, "total luciferase, z-score": -0.385, "outcome": "inactive"}
{"target": "FAM187B", "reagent no.": 2, "total luciferase, z-score": 1.25, "outcome": "inactive"}
{"target": "FAM187B", "reagent no.": 3, "total luciferase, z-score": -1.33, "outcome": "inactive"}

Individual results from above.
Under “total luciferase, z-score”, LOC400756 (retired record) #3 shows -0.176
ZNF554 #3, outcome = inactive
SNX6 #3, total luciferase, z-score = -0.356
GJB6 #2, total luciferase, z-score = 0.157
Under “outcome”, TTC19 #3 shows inactive
DYDC1 #2, outcome: inactive
